Test results reported in article PMC7803970.
Results are given in words; binding and its absence hold for the method and conditions named. In cells and extracts the contact can be indirect. Some entries that bind do so weakly or less than the wild type.

By UniProt entry, the sequences of proteins in these tests, tags left out.
UniProt Q8R4B8: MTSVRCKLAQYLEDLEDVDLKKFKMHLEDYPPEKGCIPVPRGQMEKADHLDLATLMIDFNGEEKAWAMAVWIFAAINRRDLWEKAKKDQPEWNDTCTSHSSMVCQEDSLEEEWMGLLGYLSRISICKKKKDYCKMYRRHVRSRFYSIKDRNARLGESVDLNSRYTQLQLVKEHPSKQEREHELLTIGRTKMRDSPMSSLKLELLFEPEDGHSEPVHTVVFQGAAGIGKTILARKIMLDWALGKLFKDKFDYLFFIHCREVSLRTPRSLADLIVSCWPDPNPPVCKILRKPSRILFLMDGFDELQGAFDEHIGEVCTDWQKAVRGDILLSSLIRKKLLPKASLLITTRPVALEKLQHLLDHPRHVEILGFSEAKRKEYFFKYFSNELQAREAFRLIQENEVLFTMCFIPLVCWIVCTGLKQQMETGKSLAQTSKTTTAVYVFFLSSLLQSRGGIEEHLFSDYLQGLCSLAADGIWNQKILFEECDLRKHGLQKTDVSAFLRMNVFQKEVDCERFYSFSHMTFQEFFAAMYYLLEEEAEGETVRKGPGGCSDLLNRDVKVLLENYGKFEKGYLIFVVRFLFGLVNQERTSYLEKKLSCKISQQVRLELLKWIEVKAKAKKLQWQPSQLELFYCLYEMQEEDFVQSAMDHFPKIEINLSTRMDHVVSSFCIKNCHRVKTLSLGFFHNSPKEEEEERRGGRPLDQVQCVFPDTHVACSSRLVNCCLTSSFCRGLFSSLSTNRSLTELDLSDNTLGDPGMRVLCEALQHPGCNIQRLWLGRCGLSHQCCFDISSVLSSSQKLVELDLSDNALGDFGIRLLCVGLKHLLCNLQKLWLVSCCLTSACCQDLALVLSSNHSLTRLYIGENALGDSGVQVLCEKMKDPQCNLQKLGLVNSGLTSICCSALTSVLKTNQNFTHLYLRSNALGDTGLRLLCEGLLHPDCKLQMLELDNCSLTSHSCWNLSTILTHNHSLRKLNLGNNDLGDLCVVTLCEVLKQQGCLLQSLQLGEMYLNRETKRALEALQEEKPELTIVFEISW

T1: G protein-coupled receptor 120 (mouse (endogenous in Kupffer cell line BNCC340733)) (UniProt Q7TMA4)
T1 sequence: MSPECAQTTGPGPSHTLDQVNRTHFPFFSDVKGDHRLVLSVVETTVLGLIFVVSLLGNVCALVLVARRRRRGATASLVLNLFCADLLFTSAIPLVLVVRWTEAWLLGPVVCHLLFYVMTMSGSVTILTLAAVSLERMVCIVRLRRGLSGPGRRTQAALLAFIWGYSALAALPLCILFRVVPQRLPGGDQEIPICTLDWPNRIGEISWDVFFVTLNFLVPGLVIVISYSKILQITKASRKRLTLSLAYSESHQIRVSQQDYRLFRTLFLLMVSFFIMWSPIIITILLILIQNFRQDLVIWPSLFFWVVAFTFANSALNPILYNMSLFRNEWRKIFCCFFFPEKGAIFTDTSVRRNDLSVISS


Assays:
[1] = molecular target: T1, G protein-coupled receptor 120 (mouse (endogenous in Kupffer cell line BNCC340733)); assay: co-IP; lysates of Kupffer cells pretreated with 50 uM DHA/AA for 4 h, then 100 ng/mL LPS for 12 h; immunoprecipitated with GPR120 antibody or NLRP3 antibody on protein A/G plus agarose; western blot for GPR120, NLRP3 and caspase-1
[2] = molecular target: NOD-like receptor pyrin domain-containing protein 3 (mouse (endogenous in Kupffer cell line BNCC340733)) (UniProt Q8R4B8); assay: as above

| Molecule | binding [1] | binding [2] |
| --- | --- | --- |
| NOD-like receptor pyrin domain-containing protein 3 (from UniProt Q8R4B8 1-1033) | binds | – |
| caspase-1 (enzyme, UniProt P29452 1-402) MADKILRAKRKQFINSVSIGTINGLLDELLEKRVLNQEEMDKIKLANITAMDKARDLCDHVSKKGPQASQIFITYICNEDCYLAGILELQSAPSAETFVATEDSKGGHPSSSETKEEQNKEDGTFPGLTGTLKFCPLEKAQKLWKENPSEIYPIMNTTTRTRLALIICNTEFQHLSPRVGAQVDLREMKLLLEDLGYTVKVKENLTALEMVKEVKEFAACPEHKTSDSTFLVFMSHGIQEGICGTTYSNEVSDILKVDTIFQMMNTLKCPSLKDKPKVIIIQACRGEKQGVVLLKDSVRDSEEDFLTDAIFEDDGIKKAHIEKDFIAFCSSTPDNVSWRHPVRGSLFIESLIKHMKEYAWSCDLEDIFRKVRFSFEQPEFRLQMPTADRVTLTKRFYLFPGH | – | binds |
